No constants are given. Whether binding was seen depends on the method and setting. In cells and extracts the contact can be indirect. Some binding calls cover weakened binding; strength is not graded here.
T1: Cdc55 (Pk3-Cdc55), regulatory subunit of PP2A^Cdc55 phosphatase (S. cerevisiae (endogenous in W303 derivatives)) (UniProt Q00362)
T1 sequence: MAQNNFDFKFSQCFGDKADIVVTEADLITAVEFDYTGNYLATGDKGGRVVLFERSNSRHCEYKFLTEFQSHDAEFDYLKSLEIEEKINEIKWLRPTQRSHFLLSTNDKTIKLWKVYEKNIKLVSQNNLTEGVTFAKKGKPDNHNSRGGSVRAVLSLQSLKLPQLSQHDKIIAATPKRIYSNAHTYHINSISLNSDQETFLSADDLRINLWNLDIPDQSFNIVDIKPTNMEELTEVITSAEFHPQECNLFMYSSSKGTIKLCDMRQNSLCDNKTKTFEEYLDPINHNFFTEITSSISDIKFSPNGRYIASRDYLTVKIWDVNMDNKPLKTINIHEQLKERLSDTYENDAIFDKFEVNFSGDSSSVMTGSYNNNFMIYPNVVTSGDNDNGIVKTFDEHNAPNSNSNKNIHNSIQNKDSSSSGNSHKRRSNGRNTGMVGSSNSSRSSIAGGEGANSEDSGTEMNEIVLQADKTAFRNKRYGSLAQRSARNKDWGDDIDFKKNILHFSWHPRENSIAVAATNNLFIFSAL


Target: T1, Cdc55 (Pk3-Cdc55), regulatory subunit of PP2A^Cdc55 phosphatase (S. cerevisiae (endogenous in W303 derivatives))
Assay: co-IP; yeast protein extracts (glass-bead lysis) incubated with anti-Pk antibody (SV5-Pk1) to precipitate Pk3-Cdc55, adsorbed onto protein-A Dynabeads, washed in extraction buffer, eluted with SDS-PAGE loading buffer; 2x10^9 cells for Mob1 and 3.2x10^10 cells for Bfa1; control extracts lacking the Pk epitope on Cdc55; for Bfa1 also pph3Δ pph21Δ pph22-172 cells at 37°C for 120 min and metaphase-arrested cells with separase induced for 120 min

| binding | Binder |
| --- | --- |
| binds | Bfa1 (Bfa1-HA6) (protein, UniProt P47113 1-574) MSIRPLTLNGLDEPETSFEELNTTLPRFQSHETLTLEENVPPLSTSTYIPPPSSVGTSDTGTVFSNSTSAFWSNKQADDDQDMEVDQDDEFLNDFQEFQNKKDDFDDAIKTNFHLRNGCRTGPFKNDIFAEEFDRKLSLEDKPRLKQPRSMMELKPKRKLSNSVTSRNLRSGNSVRFKKSMPNLALVNPAIREEEEDEEREREDQREFNYKIDNDTQDTILAKFSSDDEGDFLTGFEELEGEAIDETISSNDKESADHPRFLKKSSSSLPLKISPAQYDIVKHDELLTPGLHRRQRDWNTQQELDSFKEKRSVRHCSNQNVQLNGPAKIKTIKQQIDHNTPMKKGSMIYNPKTMKWEGNENVLSKFSDVDTANRKALLIKNKLQRDADSKKQKYSDLQHARATSRNQKVIGNMILDEQNLRWVSVSEEEADPFAGIPEINLPPVGKSMKKRSSSPFLRSKSQVNTPFVSNDNDGVYQSTAAQARLRKYHSMRTLNGTTETPEISSTFHLSSRALEKFYHEENRWCKKLASWFIPRDETIISVDEETIMDESTVNSKRKSYMYEIRNMVINSTKD |
| binds | Mob1 (Mob1-HA6) (protein, UniProt P40484 1-314) MSFLQNFHISPGQTIRSTRGFKWNTANAANNAGSVSPTKATPHNNTINGNNNNANTINNRADFTNNPVNGYNESDHGRMSPVLTTPKRHAPPPEQLQNVTDFNYTPSHQKPFLQPQAGTTVTTHQDIKQIVEMTLGSEGVLNQAVKLPRGEDENEWLAVHCVDFYNQINMLYGSITEFCSPQTCPRMIATNEYEYLWAFQKGQPPVSVSAPKYVECLMRWCQDQFDDESLFPSKVTGTFPEGFIQRVIQPILRRLFRVYAHIYCHHFNEILELNLQTVLNTSFRHFCLFAQEFELLRPADFGPLLELVMELRDR |
